Results taken from the supplement of paper PMC12024529.
Where a name gives a salt, the structure may show the parent alone. Some of the results follow. Part of the spread comes from offsets between plates or batches.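 HEK293 lines stably express B-domain-deleted factor VIII fused to Gaussia luciferase, wild type or a misfolding-prone missense mutant. Scores equal triplicate-well mean luminescence minus DMSO mean, divided by DMSO standard deviation; scores of 2 or higher are hits. Low scores may indicate reduced secretion or worse cell viability.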

Assays:
HEK293 WT BDD-FVIII-Gluc = experiment: secreted FVIII-Gluc luciferase Z-score vs DMSO control; higher = more FVIII-Gluc secretion; settings: 5 µM; 24 h
[1] = tested on: HEK293 p.N1941S BDD-FVIII-Gluc; experiment: as above; settings: 5 µM; 24 h

Row | SMILES | secreted FVIII-Gluc luciferase Z-score (HEK293 WT BDD-FVIII-Gluc) | secreted FVIII-Gluc luciferase Z-score [1]
1 | CCCC1O[C@@H]2C[C@H]3[C@@H]4CCC5=CC(=O)C=C[C@]5(C)[C@H]4[C@@H](O)C[C@]3(C)[C@]2(C(=O)CO)O1 (some centres undefined) [Budesonide] | inactive: -0.397 | inactive: -1.87
2 | CCCC(=O)Nc1ccc(OCC(O)CNC(C)C)c(C(C)=O)c1 (centres undefined) [Acebutolol HCl] | inactive: -0.997 | inactive: -0.0545
3 | Nc1nc(N)nc(-c2cc(Cl)ccc2Cl)n1 [Irsogladine] | inactive: -2.31 | inactive: -0.0661
4 | COc1ccccc1OCC(O)CO (centres undefined) [Guaifenesin (Guaiphenesin)] | inactive: -0.669 | inactive: -1.24
5 | Cc1cn([C@@H]2C[C@@H](O)[C@H](CO)O2)c(=O)[nH]c1=O [Telbivudine (Sebivo, Tyzeka)] | inactive: -1.9 | inactive: -0.876
6 | COc1ccc(Cl)cc1C(=O)NCCc1ccc(S(=O)(=O)NC(=O)NC2CCCCC2)cc1 [Glyburide (Diabeta)] | inactive: -2.88 | inactive: -0.748
7 | O=C1NCC2(CCN(CCc3ccccc3)CC2)O1 [Fenspiride HCl] | active: 8.29 | active: 5.23
8 | CC(=O)[C@H]1CC[C@H]2[C@@H]3CC=C4C[C@@H](O)CC[C@]4(C)[C@H]3CC[C@]12C [Pregnenolone] | inactive: -2.02 | inactive: -3.49
9 | C=CCNC(N)=S [Allylthiourea] | inactive: -0.787 | inactive: -0.16
10 | COc1cc2c(cc1O)CC[C@@H]1[C@@H]2CC[C@]2(C)[C@@H](O)CC[C@@H]12 [2-Methoxyestradiol] | inactive: -2.2 | inactive: -6.58
11 | CN(C)CCCOc1nn(Cc2ccccc2)c2ccccc12 [Benzydamine Hydrochloride] | inactive: 1.54 | inactive: 0.0485
12 | CN1CCC(OC(c2ccccc2)c2ccccc2)CC1 [Diphenylpyraline HCl] | inactive: 0.256 | inactive: -1.59
13 | CO[C@H]1/C=C/O[C@@]2(C)Oc3c(C)c(O)c4c(O)c(c(/C=N/N5CCN(C6CCCC6)CC5)c(O)c4c3C2=O)NC(=O)/C(C)=C\C=C\[C@H](C)[C@H](O)[C@@H](C)[C@@H](O)[C@@H](C)[C@H](OC(C)=O)[C@@H]1C [Rifapentine (Priftin)] | inactive: -1.39 | inactive: -1.45
14 | N[C@@H](Cc1cc(I)c(Oc2cc(I)c(O)c(I)c2)c(I)c1)C(=O)O [L-Thyroxine] | inactive: 0.928 | inactive: 0.435
15 | COc1ccc(-n2nc(C(N)=O)c3c2C(=O)N(c2ccc(N4CCCCC4=O)cc2)CC3)cc1 [Apixaban] | inactive: -0.447 | inactive: -0.00848
16 | CC(C(=O)O)c1ccc(C(=O)c2cccs2)cc1 (centres undefined) [Suprofen (Profenal)] | active: 3.07 | inactive: -1.02
17 | NC(=O)NO [Hydroxyurea (Cytodrox)] | inactive: 0.139 | inactive: -0.497
18 | CC[C@H](C)[C@H](N)C1=N[C@H](C(=O)N[C@@H](CC(C)C)C(=O)N[C@H](CCC(=O)O)C(=O)N[C@H](C(=O)N[C@H]2CCCCNC(=O)[C@H](CC(N)=O)NC(=O)[C@@H](CC(=O)O)NC(=O)[C@H](Cc3cnc[nH]3)NC(=O)[C@@H](Cc3ccccc3)NC(=O)[C@H]([C@@H](C)CC)NC(=O)[C@@H](CCCN)NC2=O)[C@@H](C)CC)CS1 [Bacitracin] | inactive: 1.26 | inactive: 0.666
19 | COc1ccc2[nH]c([S@@+]([O-])Cc3ncc(C)c(OC)c3C)nc2c1 [Esomeprazole magnesium (Nexium)] | inactive: 0.064 | inactive: -2.47
20 | CC1=C(C(=O)OC(C)C)C(c2cccc([N+](=O)[O-])c2)C(C(=O)OC2CN(C(c3ccccc3)c3ccccc3)C2)=C(N)N1 (centres undefined) [Azelnidipine] | inactive: -2.95 | inactive: -0.0634
21 | CN(Cc1ccc(C(C)(C)C)cc1)Cc1cccc2ccccc12 [Butenafine HCl] | inactive: -1.69 | inactive: -0.595
22 | CO[C@H]1C[C@@H]2CC[C@@H](C)[C@@](O)(O2)C(=O)C(=O)N2CCCC[C@H]2C(=O)O[C@H]([C@H](C)C[C@@H]2CC[C@@H](OC(=O)C(C)(CO)CO)[C@H](OC)C2)CC(=O)[C@H](C)/C=C(\C)[C@@H](O)[C@@H](OC)C(=O)[C@H](C)C[C@H](C)/C=C/C=C/C=C/1C [Temsirolimus (Torisel)] | inactive: -1.98 | inactive: -7.31

Two of these compounds in another layout.
Row,SMILES,secreted FVIII-Gluc luciferase Z-score (HEK293 WT BDD-FVIII-Gluc),secreted FVIII-Gluc luciferase Z-score [1]
8,CC(=O)[C@H]1CC[C@H]2[C@@H]3CC=C4C[C@@H](O)CC[C@]4(C)[C@H]3CC[C@]12C [Pregnenolone],inactive: -2.02,inactive: -3.49
9,C=CCNC(N)=S [Allylthiourea],inactive: -0.787,inactive: -0.16
